This is one part of the list. Shown are side measurements of this screen, not its main read-out; they come without a call. Most of these compounds were active or inconclusive in the main read-out, so they are no random draw. Potencies come from curve fits of mixed quality, noted in brackets.

This experiment is described as follows: qHTS Assay for Lipid Storage Modulators in Drosophila S3 Cells.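 On cell number change: cells counted by Cell Tracker Red CMTPX staining in the red channel.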 As to conditions: BODIPY lipid droplet fluorescence, 18-24 h; for cell number change: measured here: cell count max response, cells fed with added oleic acid. The method, boiled down:
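Drosophila S3 cells loaded with oleic acid (400 uM, as added) and compounds at several concentrations; lipid droplets imaged by 488-nm laser-scanning cytometry, 500–530 nm intensity and object ratio to cell channel. Percent activity normalized to 20 uM Triacsin C.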

Setting [1] is: measured here: lipid fluorescence (Fed channel) AC50, cells fed with added oleic acid.
Where [2] appears, read: measured here: cell number channel AC50, cells fed with added oleic acid.

As for `COc1cc(OC)cc(-n2c3nc4ccccc4nc3c3c(=O)n(CC4CCCO4)cnc32)c1` (configuration not stated), the cell number change turned out to be 6.42%. Moreover, the AC50 under setting [1] was 0.651 µM [rising, full curve].

As for `CCCCCCCCC1=NCCc2c1[nH]c1ccccc21`, the cell number change is -55.1%. Further, the AC50 under setting [2] is 29.1 µM [falling, single point]. Also, the AC50 under setting [1] is 25.9 µM [falling, single point].

Take `Cc1cc(C)cc(NC(=O)CSCc2cc(=O)n3ccsc3n2)c1`: the cell number change amounted to 5.1%. In addition, the AC50 under setting [1] is 3.66 µM [rising, single point].

As to `O=S1(=O)CC(O)C(N=Nc2c(O)n(Cc3ccccc3)c3ccccc23)C1` (configuration not stated), the cell number change was found to be 29.2%.

As to `COc1ccc(/C=N/NS(=O)(=O)c2ccc(C)cc2)cc1`, the cell number change stood at 12.8%. Further, the AC50 under setting [1] was 6.51 µM [rising, single point].

With `Cc1ccc(C(C)C)c(OCCN2C(=O)NC(C)(C)C2=O)c1`, the cell number change was determined as 14.4%. Moreover, the AC50 under setting [1] was 1.64 µM [falling, partial curve].

Turning to `Cc1ccc(C(=O)CN(CCCC(N)=O)S(=O)(=O)c2ccc([N+](=O)[O-])cc2)cc1`, the cell number change stood at 4.62%. The AC50 under setting [2] was 0.0259 µM [rising, partial curve, poor fit]. In addition, the AC50 under setting [1] was 0.00411 µM [rising, full curve, poor fit].

For the molecule `NC(=S)N/N=C/c1cc([N+](=O)[O-])ccc1OCCOc1ccccc1`, the cell number change is -24.6%.

For `O=C(COc1ccc(Br)cc1CNCCc1ccccc1)NCc1ccccc1`, the cell number change was -41.7%. The AC50 under setting [2] was 15.8 µM [falling, single point]. Under setting [1], the AC50 was 14.1 µM [falling, single point].

As to `CCCn1ncc(C(=O)NC2CCCN(Cc3ccc(Cl)cc3)C2)c1C` (configuration not stated), the cell number change was determined as 24.4%.

For the molecule `COc1ccc(NC(=O)CSCC(=O)Nc2ccc(S(=O)(=O)N3CCOCC3)cc2)cc1`, the cell number change came to 23.1%. In addition, the AC50 under setting [1] was 0.0291 µM [falling, full curve, poor fit].

Turning to `CCc1cc2c(=O)c(-c3ccc4c(c3)OCCO4)c(C)oc2cc1OS(C)(=O)=O`, the cell number change is -23.2%. Under setting [1], the AC50 was 18.4 µM [falling, single point].

For the molecule `C=CCN(C(=O)CNC(=O)c1ccco1)C(C(=O)NC1CCCCC1)c1ccccc1` (configuration not stated), the cell number change is 18.1%.

For the molecule `CC1CCc2cc(F)ccc2N1C(=O)CSc1nnc2c3ccccc3n(C)c2n1` (configuration not stated), the cell number change was 29.1%. In addition, under setting [1], the AC50 is 1.84 µM [rising, partial curve, poor fit].

With `CC(C)Cc1nnc(NC(=O)CCC(=O)Nc2ccccc2)s1`, the cell number change is -2.12%. Besides, the AC50 under setting [1] is 0.651 µM [rising, single point].

Turning to `O=C(CCS(=O)(=O)Cc1ccccc1)N1CCN(Cc2ccccc2)CC1`, the cell number change was -9.8%.

`O=C(NCc1ccccc1)c1cccc(COc2ccc(Cl)cc2)c1`: the cell number change is -28.1%.

Regarding `Cc1ccc[n+](-c2[nH]c(=O)sc2/C=N/N=C(\[O-])c2cccnc2)c1`, the cell number change was 7.66%.

As for `CCOC(=O)c1cccc(NC(=O)C2CCCO2)c1` (configuration not stated), the cell number change worked out at 9.69%. The AC50 under setting [1] is 2.06 µM [falling, partial curve].

Take `COc1ccc(C)cc1Cn1nnc2ccccc21`: the cell number change is -4.92%. Further, the AC50 under setting [1] was 8.2 µM [rising, partial curve, poor fit].

In the case of `CN(/N=C/c1ccccc1O)C(=S)c1ccccc1`, the cell number change came out at 22%.

Consider `CC(=O)C1CCN(Cc2ccccc2)CC1`, for which the cell number change was -31.7%. In addition, under setting [2], the AC50 is 2.31 µM [falling, full curve]. Besides, the AC50 under setting [1] was 18.4 µM [falling, partial curve].

As for `C=CCn1c(CSCc2ccc(Cl)cc2)nnc1SCC(=O)NCc1ccccc1`, the cell number change amounted to 19.2%.

Consider `CC(=O)c1cnn(-c2cc(Oc3ccc(F)cc3)ncn2)c1C`, for which the cell number change came out at 2.66%. Besides, the AC50 under setting [1] is 6.51 µM [rising, single point].

On to `Cc1ccc2nc(N3CC(=O)Nc4ccccc43)nc(-c3ccccc3)c2c1`, for which the cell number change is -60.7%. For the same molecule, the AC50 under setting [2] is 18.4 µM [falling, single point]. For the same molecule, the AC50 under setting [1] was 29.1 µM [falling, single point].

For the molecule `O=C1c2ccccc2C(=O)c2c1ccc(C(=O)N1CCCCC1)c2NCCO`, the cell number change is -1.93%.

For `O=C(COC(=O)CC1CCCC1)Nc1cc2c(cc1Cl)C(=O)c1ccccc1C2=O`, the cell number change is -2.4%. Besides, the AC50 under setting [1] is 0.231 µM [falling, full curve].

Turning to `COc1ccc(CNCC(O)(c2ccccc2)c2ccccc2)cc1OC`, the cell number change was -30.8%. The AC50 under setting [2] is 0.58 µM [rising, full curve].

For the molecule `COc1ccccc1NC(=O)CCC(=O)OCc1ccc(Cl)cc1`, the cell number change was determined as 8.17%. The AC50 under setting [1] was 29.1 µM [falling, single point].

In the case of `Cc1ccc(-c2nnn(CC(=O)N(CC3CCCO3)C(C(=O)NC3CCCCC3)c3ccc(F)cc3)n2)o1` (configuration not stated), the cell number change stood at 12.5%. For the same molecule, the AC50 under setting [2] was 6.51 µM [rising, single point]. Moreover, under setting [1], the AC50 was 8.2 µM [rising, partial curve].

Turning to `CC1CCC(C(=O)c2c(O)c3ccccc3oc2=O)CC1` (configuration not stated), the cell number change is -7.76%. For the same molecule, the AC50 under setting [1] is 0.13 µM [rising, full curve, poor fit].

Consider `COc1ccc(C(CNC(=O)c2ccc(NS(=O)(=O)c3ccc4c(c3)OCCO4)cc2)N(C)C)cc1` (configuration not stated), for which the cell number change came to 52.5%. Also, the AC50 under setting [2] was 29.1 µM [rising, single point].

In the case of `COC(=O)Nc1ccc(S(=O)(=O)NCc2ccccn2)cc1`, the cell number change was 12.6%.

With `Cc1c(C(=O)Nc2cccc(Cl)c2)cn2c(nc3ccccc32)c1C#N`, the cell number change is 0.287%. The AC50 under setting [1] was 4.61 µM [rising, single point].

`CC(C)OCCCNC(=O)C1CCN(S(=O)(=O)N2CCCC2)CC1`: the cell number change came to 15.9%. Moreover, the AC50 under setting [1] was 0.461 µM [falling, single point].

For `Cc1ccccc1NC(=O)CSc1nc2ccccc2c(=O)n1C`, under setting [1], the AC50 is 0.291 µM [falling, partial curve, poor fit].

With `CC(O)C(C(=O)OCc1ccc([N+](=O)[O-])cc1)N1C(=O)c2ccccc2C1=O` (configuration not stated), the AC50 under setting [1] is 5.8 µM [falling, full curve, poor fit].

For `CC1CCN(C(=O)C2CCN(S(=O)(=O)c3ccc(-n4cnnn4)cc3)CC2)CC1`, the cell number change worked out at 30.3%. The AC50 under setting [2] was 29.1 µM [rising, single point].

As for `CC(=O)N1CCN=C1SCc1ccc(Br)cc1`, the cell number change is 59.9%. Also, the AC50 under setting [2] is 10.3 µM [rising, partial curve]. The AC50 under setting [1] is 20.6 µM [rising, partial curve].

Take `CNc1ccccc1C(C)(C)c1cc(-c2cccc(OC)c2)no1`: the cell number change was determined as 3.91%. Under setting [1], the AC50 is 32.6 µM [falling, partial curve, poor fit].

`CCC1(NC(C)=O)CC2CC1CC2NC(C)=O` (configuration not stated): the cell number change is -12.5%. Besides, the AC50 under setting [1] is 23.1 µM [falling, partial curve].

`C=CCNC(=O)CC1Nc2c3ccccc3nc(=S)n2C1=O` (configuration not stated): the cell number change is -9.65%. Also, the AC50 under setting [2] was 3.26 µM [falling, partial curve, poor fit].

For the molecule `O=C(COC(=O)c1cc(-c2cccs2)nn1-c1ccccc1)Nc1ccc(F)c([N+](=O)[O-])c1`, the cell number change was -11.5%. Also, the AC50 under setting [2] was 1.3 µM [falling, full curve]. Further, under setting [1], the AC50 is 29.1 µM [rising, partial curve, poor fit].

As to `COC1=NS(=O)(=O)c2ccccc21`, the cell number change was -13.5%. Under setting [2], the AC50 was 0.731 µM [rising, single point]. Also, the AC50 under setting [1] was 1.46 µM [rising, partial curve].

Regarding `COC(=O)c1ccc(Cl)c(NS(=O)(=O)c2ccc3c(c2)OCCO3)c1`, the AC50 under setting [1] is 5.8 µM [rising, single point].

`N#CCSc1nc(-c2ccccc2)nc2ccccc12`: the cell number change came to 0.525%.

Consider `CCN(/C(N)=N/c1nc(C)cc(C)n1)c1ccccc1`, for which the cell number change was found to be 25.3%.

Regarding `COc1ccc(CNC(=O)c2csnn2)cc1`, the cell number change is -21.2%.

As for `CCC(C(=O)N1CC2(C)CC1CC(C)(C)C2)N1C(=O)c2ccccc2C1=O` (configuration not stated), the cell number change is -23.1%. The AC50 under setting [1] is 11.6 µM [falling, partial curve, poor fit].

Consider `O=C(CC(Nc1cccc(Cl)c1Cl)C(=O)O)c1ccccc1` (configuration not stated), for which the cell number change was -55.5%. Moreover, under setting [2], the AC50 is 11.6 µM [falling, partial curve]. For the same molecule, the AC50 under setting [1] was 29.1 µM [falling, single point].

Turning to `Cc1ccc2[nH]c(C(=O)O)c(NC(=O)CN3CCN(c4cccc(C)c4C)CC3)c2c1`, the cell number change came to 2.33%. The AC50 under setting [1] was 1.16 µM [falling, full curve, poor fit].

On to `O=C(Nc1cccc(S(=O)(=O)Nc2ccc(Cl)cc2)c1)c1ccccn1`, for which the cell number change is -8.1%. For the same molecule, under setting [1], the AC50 was 9.2 µM [falling, single point].

As for `Cc1cc(C=NCCCO)c(C)n1-c1cc(Cl)ccc1Cl`, the AC50 under setting [2] is 6.51 µM [falling, single point].

With `c1coc(Cn2nnnc2CN2CCN(C3CCCCC3)CC2)c1`, the cell number change was 9.19%. Also, the AC50 under setting [1] was 16.4 µM [falling, partial curve, poor fit].

As for `O=C(CCC(=O)N(Cc1ccco1)C(C(=O)NC1CCCC1)c1ccncc1)Nc1cccnc1` (configuration not stated), the cell number change was -4.91%.

With `O=C(COC(=O)c1cc[n+]([O-])cc1)NCC12CC3CC(CC(C3)C1)C2`, the cell number change is -25.5%. The AC50 under setting [2] is 0.146 µM [falling, full curve, poor fit].

In the case of `O=C(NN1C(=O)C2C3C=CC(C4CC34)C2C1=O)c1ccc(Br)cc1` (configuration not stated), the cell number change is -9.99%. Further, the AC50 under setting [1] is 0.461 µM [falling, partial curve, poor fit].

As for `Cc1cc2c(NC(=O)Nc3ccc(F)cc3)cccc2nn1`, the cell number change is -50.9%. Further, the AC50 under setting [2] was 29.1 µM [falling, single point]. Further, the AC50 under setting [1] was 29.1 µM [falling, single point].

Turning to `O=C(CSc1cccs1)Nc1ccc2ccccc2c1`, the cell number change worked out at 153%. Further, the half-maximal activity concentration (AC50) under setting [1] was 0.092 µM [rising, full curve, poor fit].

Regarding `CCOC(=O)N1CCN(Cc2cc(=O)oc3cc4c(cc23)CCC4)CC1`, the cell number change was -10.5%. For the same molecule, under setting [1], the AC50 is 0.13 µM [rising, full curve, poor fit].

`COc1ccc(N=C(c2ccccc2)c2c(C)[nH]n(-c3ccccc3)c2=O)c(OC)c1`: the cell number change is -29.8%. Also, the AC50 under setting [1] is 29.1 µM [falling, single point].

In the case of `COc1cccc(C2=NOC(C(=O)Nc3cc(OC)c(OC)c(OC)c3)C2)c1` (configuration not stated), the cell number change amounted to 17.1%.

As for `O=C(CN1CCCCCC1)Nc1ccccc1OC(F)F`, the cell number change came to 20.4%. Besides, the AC50 under setting [1] was 0.103 µM [rising, partial curve, poor fit].

The record behind these values is PubChem BioAssay AID2685 (National Center for Advancing Translational Sciences (NCATS), 2010).
